Results are given in words; binding and its absence hold for the method and conditions named. In cells and extracts the contact can be indirect. Some binding calls cover weakened binding; strength is not graded here.
Experiments:
[1] = target: epidermal growth factor receptor (EGFR) (UniProt P00533); test: co-IP; HEK293 cells overexpressing ADAMTS1, L1CAM and EGFR; NETN lysis buffer (150 mM NaCl, 20 mM Tris-base, 1 mM EDTA, 0.5% NP-40); 0.5 mg lysate with anti-EGFR, anti-L1CAM or IgG antibody overnight at 4 °C, protein A Sepharose beads 2 h, five washes; Western blot
[2] = target: L1 cell adhesion molecule (L1CAM) (UniProt P32004); test: as above

binding [1]	binding [2]	Substance
binds	–	L1 cell adhesion molecule (L1CAM) (from UniProt P32004 20-1257)
–	binds	epidermal growth factor receptor (EGFR) (from UniProt P00533 25-1210)

Source: PMC10805752
